Measured values: patent US6881729B2, “Bile compound and method of controlling behavior of lampreys therewith” (Board of Trustees of Michigan State University, priority 2001, dated 2005)
Some results were stated once for a whole list of compounds, not compound by compound.

System: antibody against 3kPZS (polyclonal antiserum L286)
Test: ELISA cross-reactivity of the antiserum
Type: binding, rabbit
Details: relative to 3kPZS standard
Procedure: Plates were coated with polyclonal goat anti-rabbit IgG (Sigma; product code R2004) by adding 120 μL of antibody diluted in 0.05 M potassium phosphate buffer, pH 7.4 to each well and incubating overnight at 4° C. The plates were blocked by addition of 100 μL of 3% BSA in 0.1 M potassium phosphate buffered saline and storage at 4° C. for at least 12 h.
Non-specific binding (NSB) and maximum binding (B0) were measured in separate wells. Water washings, extracts, or HPLC fractions were diluted 20 times in assay buffer and 100 μL added to wells in duplicate; 50 μL of the diluted enzyme label (1:2000) was added to all wells and 50 μL of primary antibody (1:500,000) was added to all but NSB wells. Plates were incubated for 2 h at room temperature in a humid chamber. Then, after rinsing three times with wash buffer, 200 μL Ellmans reagent (4.3 mg DTNB, and 4 mg acetyl thiocholine in 20 mL 0.02 M potassium phosphate buffer) was added to each well. The plates were sealed and incubated overnight at room temperature in a humid chamber.
To test the cross-reactivity of the antibody to structurally related compounds, serial dilutions of ACA, PZ, PZS, CA, 3kACA, and 3kPZ were assayed alongside the 3kPZS standard.

Compound	cross-reaction with the antiserum
C[C@H](CCC(=O)O)[C@H]1CC[C@H]2[C@@H]3[C@H](O)C[C@H]4C[C@H](O)CC[C@]4(C)[C@H]3C[C@H](O)[C@]12C [ACA, 3α,7α,12α-trihydroxy-5α-cholan-24-oic acid]	less than 0.2%
C[C@H](CCC(=O)O)[C@H]1CC[C@H]2[C@@H]3[C@H](O)C[C@@H]4C[C@H](O)CC[C@]4(C)[C@H]3C[C@H](O)[C@]12C [CA, cholic acid]	less than 0.2%
